In paper PMC12816604:

Tests used:
J2 IgG WT [1] = experiment: FP competition; settings: vs 3'-FAM VA-I RNA; recombinant protein; protein details: His8 (HC C-term)
J2 IgG WT [2] = experiment: BLI; settings: BLI: 25 mM Tris-HCl pH 7.5, 100-400 mM KCl (per row), 2 mM MgCl2, 25 C, IgG immobilized on Protein A, recombinant protein, protein details: His8 (HC C-term)
J2 IgG HC N101A = experiment: BLI; settings: 100 mM KCl; BLI: 25 mM Tris-HCl pH 7.5, 100-400 mM KCl (per row), 2 mM MgCl2, 25 C, IgG immobilized on Protein A; recombinant protein; protein details: His8
J2 IgG HC N101R = experiment: BLI; settings: 100 mM KCl, below N101A; BLI: 25 mM Tris-HCl pH 7.5, 100-400 mM KCl (per row), 2 mM MgCl2, 25 C, IgG immobilized on Protein A; recombinant protein; protein details: His8
J2 IgG HC N55A = experiment: BLI; settings: 100 mM KCl, Kd N.D.; BLI: 25 mM Tris-HCl pH 7.5, 100-400 mM KCl (per row), 2 mM MgCl2, 25 C, IgG immobilized on Protein A; recombinant protein; protein details: His8
J2 IgG HC P102A = experiment: BLI; settings: 100 mM KCl; BLI: 25 mM Tris-HCl pH 7.5, 100-400 mM KCl (per row), 2 mM MgCl2, 25 C, IgG immobilized on Protein A; recombinant protein; protein details: His8
J2 IgG HC W104A = experiment: BLI; settings: 100 mM KCl, Kd N.D.; BLI: 25 mM Tris-HCl pH 7.5, 100-400 mM KCl (per row), 2 mM MgCl2, 25 C, IgG immobilized on Protein A; recombinant protein; protein details: His8
J2 IgG HC Y50A = experiment: BLI; settings: 100 mM KCl, Kd N.D.; BLI: 25 mM Tris-HCl pH 7.5, 100-400 mM KCl (per row), 2 mM MgCl2, 25 C, IgG immobilized on Protein A; recombinant protein; protein details: His8
J2 IgG HC Y52A = experiment: BLI; settings: 100 mM KCl, Kd N.D.; BLI: 25 mM Tris-HCl pH 7.5, 100-400 mM KCl (per row), 2 mM MgCl2, 25 C, IgG immobilized on Protein A; recombinant protein; protein details: His8
J2 IgG LC S33R = experiment: BLI; settings: 100 mM KCl, nearly abolished, Kd N.D.; BLI: 25 mM Tris-HCl pH 7.5, 100-400 mM KCl (per row), 2 mM MgCl2, 25 C, IgG immobilized on Protein A; recombinant …; protein details: His8 (HC)
J2 IgG LC W56A = experiment: BLI; settings: 100 mM KCl, severe reduction, Kd N.D.; BLI: 25 mM Tris-HCl pH 7.5, 100-400 mM KCl (per row), 2 mM MgCl2, 25 C, IgG immobilized on Protein A; recombinant …; protein details: His8 (HC)
J2 IgG LC Y101A = experiment: BLI; settings: 100 mM KCl, strongly reduced; BLI: 25 mM Tris-HCl pH 7.5, 100-400 mM KCl (per row), 2 mM MgCl2, 25 C, IgG immobilized on Protein A; recombinant protein; protein details: His8 (HC)
J2 IgG WT [3] = experiment: SV-AUC; settings: 1:1 complex; recombinant protein; protein details: His8 (HC C-term)
J2 Fab = experiment: X-ray; settings: 2.85 A, 2 Fabs on one dsRNA; recombinant protein; protein details: His6 (HC C-term)

“GUUGUAAAGAAGGU / ACCUUCUUUACAAC [14-bp dsRNA]”: binds more weakly (J2 IgG WT [1]).

“GTTGTAAAGAAATATAACAGGCTTGTACCATTGATGGAAA [40-nt ssDNA]”: no binding (J2 IgG WT [2]; 400 mM KCl, single-stranded DNA).

“GTTGTAAAGAAATATAACAGGCTTGTACCATTGATGGAAA (double strand) [40-bp dsDNA]”: no binding (J2 IgG WT [2]; 400 mM KCl).

“GUUGUAAAGAAAUAUAACAGGCUUGUACCAUUGAUGGAAA / TTTCCATCAATGGTACAAGCCTGTTATATTTCTTTACAAC [40-bp RNA-DNA hybrid]”: no binding (J2 IgG WT [2]; 400 mM KCl, robustly discriminated against, DNA:RNA hybrid).

GUUGUA / UACAAC [6-bp dsRNA]: no binding (J2 IgG WT [2]; 100 mM KCl); no binding (J2 IgG WT [1]).

“GUUGUCCAGAAAUAAGGCUGCGUACCAAAC / GUUUGGUACGCAGCCUUAUUUCUGGACAAC [30-bp dsRNA 47% GC]”: binds (J2 IgG WT [2]; 200 mM KCl, nanomolar Kd).

“GUUGUAAAGAAAUAUAGGCU / AGCCUAUAUUUCUUUACAAC [20-bp dsRNA]”: binds more weakly (J2 IgG HC N101A); binds more weakly (J2 IgG HC N101R); binds more weakly (J2 IgG HC N55A). “GUUGUAAAGAAAUAUAGGCU / AGCCUAUAUUUCUUUACAAC [20-bp dsRNA]”: binds more weakly (J2 IgG HC P102A); binds more weakly (J2 IgG HC W104A); binds more weakly (J2 IgG HC Y50A). “GUUGUAAAGAAAUAUAGGCU / AGCCUAUAUUUCUUUACAAC [20-bp dsRNA]”: binds more weakly (J2 IgG HC Y52A); binds more weakly (J2 IgG LC S33R); binds more weakly (J2 IgG LC W56A). “GUUGUAAAGAAAUAUAGGCU / AGCCUAUAUUUCUUUACAAC [20-bp dsRNA]”: binds more weakly (J2 IgG LC Y101A).

“AAAAAAAAAAAAAAAAAAAAAAAAAAAAAAAAAAAAAAAA / UUUUUUUUUUUUUUUUUUUUUUUUUUUUUUUUUUUUUUUU [poly(rA)-poly(rU) 40 bp]”: binds more weakly (J2 IgG WT [2]; 400 mM KCl).

“GUUGUAAAUAAAUAUAAUAGUUCUAUACUA / UAGUAUAGAACUAUUAUAUUUAUUUACAAC [30-bp dsRNA 17% GC]”: binds (J2 IgG WT [2]; 200 mM KCl, nanomolar Kd); binds (J2 IgG WT [3]).

GUUGUAAAGA / UCUUUACAAC [10-bp dsRNA]: binds more weakly (J2 IgG WT [2]; 100 mM KCl, Kd N.D.); binds more weakly (J2 IgG WT [1]).

“GUUGUAAAGAAGGUCAAUAUUGUA / AACAAUAUUGACCUUCUUUACAAC [crystallization dsRNA (23 bp + terminal A-A mismatch)]”: binds (J2 Fab).

“AAAAAAAAAAAAAAAAAAAAAAAAAAAAAAAAAAAAAAAA (double strand) [poly(dA)-poly(dT) 40 bp]”: no binding (J2 IgG WT [2]; 400 mM KCl).

“AAAAAAAAAAAAAAAAAAAAAAAAAAAAAAAAAAAAAAAA (double strand) [poly(rA)-poly(dT) 40 bp]”: binds more weakly (J2 IgG WT [2]; 400 mM KCl, weaker than poly(rA)-poly(rU), strand 1 RNA, strand 2 DNA, DNA:RNA hybrid).

“AAAAAAAAAAAAAAAAAAAAAAAAAAAAAAAAAAAAAAAA / UUUUUUUUUUUUUUUUUUUUUUUUUUUUUUUUUUUUUUUU [poly(dA)-poly(rU) 40 bp]”: no binding (J2 IgG WT [2]; 400 mM KCl, strand 1 DNA, strand 2 RNA, DNA:RNA hybrid).

“GUUGUAAAGAAAUAUAACAGGCUUGUACCAUUGAUGGAAA [40-nt ssRNA]”: no binding (J2 IgG WT [2]; 400 mM KCl).

The exact form of at least one protein or probe is not confirmed. For part of these data: Negatives hold for the conditions tested. For part of these data: A weaker result is weaker than the reference pair of the same experiment. For part of these data: At least one verdict rests on a figure or table, not on a statement of the authors.
